## Percent effect of library compounds

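Whole-cell growth test on Mycobacterium tuberculosis, read after 4 days in a medium based on cholesterol and the lipid DPPC; the read-out is not stated. Compounds at 500 µM. The record gives no direction; compounds that gave an IC50 in retests scored well above the rest, so higher reads as more growth inhibition. Of about 18,000 compounds tested this way, about 900 (5%) reached 50% or more in at least one test.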

Results are given as percent effect.
The controls that fix the scale are not given in the record; negative values are as filed.
This is an unselected part of the compounds tested.

{"compound": "CN1C(=O)Cc2cc(C(=O)NCc3ccco3)ccc21", "Percent Effect": -28.17}
{"compound": "Cc1nc(CNc2ccn(-c3ncccc3Cl)n2)no1", "Percent Effect": -3.584}
{"compound": "CNC(=O)c1ccc(S(=O)(=O)NC2CC2)o1", "Percent Effect": -4.973}
{"compound": "NC(=O)CCN1CCCC(CO)(CC2CC2)C1", "stereo": "configuration not stated", "Percent Effect": -5.287}
{"compound": "CCOC(=O)CNC(=O)NC(C)c1ccccn1", "stereo": "configuration not stated", "Percent Effect": 9.503}
{"compound": "COC1CCCN(C(=O)c2ccccc2C(C)=O)C1", "stereo": "configuration not stated", "Percent Effect": -4.878}
{"compound": "CNC(=O)C(C)(C)C", "Percent Effect": 18.87}
{"compound": "CCCN(C)C(CO)c1ccc(OC)cc1", "stereo": "configuration not stated", "Percent Effect": 11.25}
{"compound": "CC(C)=CCO[C@H]1CCOC[C@H]1NC(=O)c1cnc[nH]1", "Percent Effect": -20.73}
{"compound": "CNC(=O)NC(C)(C)C(=O)Nc1ccc2c(c1)CCC2", "Percent Effect": 1.963}
{"compound": "CN(Cc1ncc[nH]1)c1cc(C2CC(N)C2)nc(N)n1", "stereo": "configuration not stated", "Percent Effect": -15.41}
{"compound": "CC1c2ccsc2CCN1C(=O)c1ccncc1", "stereo": "configuration not stated", "Percent Effect": 14}
{"compound": "CNC(=O)c1ccc(NS(=O)(=O)c2ccc(C)s2)cc1", "Percent Effect": 49.21}
{"compound": "CN(C(=O)NC1CCN(C2CC2)CC1)C1CC1", "Percent Effect": -17.63}
{"compound": "Cc1nc(C)c(C(=O)NCCN2CCCCC2)o1", "Percent Effect": 2.17}
{"compound": "CCc1ccc(S(=O)(=O)N(C)CC(N)=O)s1", "Percent Effect": 30.96}
{"compound": "CC(=O)c1ccc(CNC(=O)c2cc[nH]n2)nc1C", "Percent Effect": 0.5979}
{"compound": "CC1CCN(C(=O)CSc2nncs2)CC1", "Percent Effect": 61.44}
{"compound": "Cc1ccc(CN(CCO)C(=O)c2cc[nH]n2)cc1", "Percent Effect": -28.2}
{"compound": "O=C1NCCCCC1Nc1nccc(C(F)(F)F)n1", "stereo": "configuration not stated", "Percent Effect": 13.14}
{"compound": "CN(C)[C@@H]1CN(C(=O)C2CC=CC2)C[C@H]1CO", "Percent Effect": -23.01}
{"compound": "CCCn1ncc(CN(C)CCC(=O)NC)c1C", "Percent Effect": -13.13}
{"compound": "Cc1csc(CCNC(=O)CNC(=O)C(C)(C)C)n1", "Percent Effect": 12.12}
{"compound": "CC(=O)c1ccc2c(c1)CCC(=O)N2C", "Percent Effect": 43.98}
{"compound": "O=C(c1ccccc1)N1CCCNCC1", "Percent Effect": 1.917}
{"compound": "COCCN(C)C(=O)Nc1ncc(C)s1", "Percent Effect": -8.276}
{"compound": "O=C(CS(=O)(=O)Cc1ccccc1)Nc1nccs1", "Percent Effect": 3.441}
{"compound": "CN(C)[C@@H]1C[C@@H](CO)N(C(=O)c2ccc(Cl)s2)C1", "Percent Effect": 13.11}
{"compound": "CC(C)OCCCNC(=O)C1(S(C)(=O)=O)CC1", "Percent Effect": -3.274}
{"compound": "CCOc1cc(CN)ccc1OC(F)F", "Percent Effect": 26.43}
{"compound": "Cc1cc(CC(=O)Nc2ncccc2Br)no1", "Percent Effect": -5.465}
{"compound": "NC(=O)CN1CCCCCC1", "Percent Effect": -3.554}
{"compound": "CCCNC(=O)CCn1nc(C)cc1C", "Percent Effect": -12.46}
{"compound": "CCC(NC(=O)c1cccn1C(C)C)[C@H]1C[C@H](O)C1", "stereo": "some centres not stated", "Percent Effect": 0.5924}
{"compound": "CNC(=O)C1CCN(C(=O)Nc2ccc(C)c(Cl)c2)C1", "stereo": "configuration not stated", "Percent Effect": 7.716}
{"compound": "O=C(c1ccoc1)N1CCCCC1Cn1cccn1", "stereo": "configuration not stated", "Percent Effect": -1.471}

The first 4 entries again:

- CN1C(=O)Cc2cc(C(=O)NCc3ccco3)ccc21 | -28.17%
- Cc1nc(CNc2ccn(-c3ncccc3Cl)n2)no1 | -3.584%
- CNC(=O)c1ccc(S(=O)(=O)NC2CC2)o1 | -4.973%
- NC(=O)CCN1CCCC(CO)(CC2CC2)C1 (configuration not stated) | -5.287%

From ChEMBL document CHEMBL3988442, “University of Dundee, Small-Polar-MMV Screening Library” (2021).